The list shows a part of the results. The main result of the screen is listed elsewhere. These columns were measured beside it and carry no call. The list favours compounds with an active or inconclusive main result. Potencies come from curve fits of mixed quality, noted in brackets.
Assay: qHTS Assay for Lipid Storage Modulators in Drosophila S3 Cells;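 on cell number change: cells counted by Cell Tracker Red CMTPX staining in the red channel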
Details: BODIPY lipid droplet fluorescence, 18-24 h; for cell number change: measured here: cell count max response, cells fed with added oleic acid
Outline: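 Laser-scanning cytometry quantifies lipid droplet accumulation (500–530 nm total intensity; droplet/cell object ratio) in oleic acid-fed (400 uM added) Drosophila S3 cells treated with a concentration series. 20 uM Triacsin C defined 100% inhibition.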

[1] = measured here: lipid fluorescence (Fed channel) AC50, cells fed with added oleic acid

SMILES | cell number change [%] | AC50 [1] | AC50 (measured here: cell number channel AC50, cells fed with added oleic acid)
O=C1c2ccccc2C(=O)N1CCCSc1nc2ccccc2o1 | -4.74 | 13 µM [falling, single point] | 
CC(=O)Nc1ccc(Nc2c3c4c(cccc4n(C)c2=O)C(=O)c2ccccc2-3)cc1 | 20.1 | 5.17 µM [falling, single point] | 
NC(=O)c1sc2cc(C(F)(F)F)cnc2c1-c1cccs1 | 27.3 | 8.2 µM [rising, partial curve] | 
CCc1nc2oc3cc(OC)ccc3c(=O)c2c(=O)n1-c1ccccc1 | 18.4 | 6.51 µM [rising, partial curve] | 
O=C(c1ccco1)N1CCN(C(=O)c2cc3ccccc3oc2=O)CC1 | -0.578 | 0.461 µM [rising, single point] | 
CC(C)CN(C(=O)COC(=O)c1ccc2ccccc2n1)C1CCS(=O)(=O)C1 (stereo not drawn) | 10.3 | 29.1 µM [rising, single point] | 
CCc1ccc(S(=O)(=O)N/N=C\c2ccc3c(c2)OCO3)cc1 | -6.16 | 0.146 µM [rising, full curve, poor fit] | 
CCC(c1nnnn1CCc1ccccc1)N1CCN(c2ccc(OC)cc2)CC1 (stereo not drawn) | 5.14 |  | 
CCSc1ccc([C@@H]2[C@@H]3C(=O)N(CC)C(=O)[C@@H]3[C@]3(C(=O)OC)CCCCN23)cc1 | 15.3 | 6.51 µM [rising, partial curve, poor fit] | 
CCCCN(C(=O)c1c(C)noc1C)c1c(N)n(CCC)c(=O)[nH]c1=O | -1.68 | 0.184 µM [falling, full curve, poor fit] | 
CCc1nnc(NC(=O)CCC(=O)NCC2CCCO2)s1 (stereo not drawn) | 7.76 | 29.1 µM [falling, single point] | 
CC1Oc2ccccc2N(Cc2cccnc2)C1=O (stereo not drawn) | 3.58 | 0.116 µM [falling, single point] | 
CCc1nnc(NC(=O)CSc2nnc(-c3cccnc3)n2CC)s1 | 44.2 |  | 0.461 µM [rising, partial curve, poor fit]
CCc1ccccc1N1CC23C=CC(O2)C(C(=O)OCC(C)C)C3C1=O (stereo not drawn) | 18.1 | 0.58 µM [rising, full curve] | 
Cc1ccc(C(=O)NCC(=O)NCC(=O)OCC(=O)c2ccc(Br)cc2)cc1 | -4.4 | 8.2 µM [falling, partial curve, poor fit] | 
Cc1[nH]n2c(=O)c(C#N)c(-c3ccccc3)nc2c1-c1ccccc1 | -3.75 | 0.092 µM [falling, full curve, poor fit] | 
CC(C)(C)NC(=O)Cn1c(SCC(=O)N2CCCCCC2)nc2ccccc21 | -1.25 | 1.84 µM [rising, full curve, poor fit] | 

Ordered by SMILES length (low to high): part of the list above.
SMILES | cell number change [%] | AC50 [1] | AC50 (measured here: cell number channel AC50, cells fed with added oleic acid)
CC(C)(C)NC(=O)Cn1c(SCC(=O)N2CCCCCC2)nc2ccccc21 | -1.25 | 1.84 µM [rising, full curve, poor fit] | 
CC(C)CN(C(=O)COC(=O)c1ccc2ccccc2n1)C1CCS(=O)(=O)C1 (stereo not drawn) | 10.3 | 29.1 µM [rising, single point] | 
CC(=O)Nc1ccc(Nc2c3c4c(cccc4n(C)c2=O)C(=O)c2ccccc2-3)cc1 | 20.1 | 5.17 µM [falling, single point] | 
CCSc1ccc([C@@H]2[C@@H]3C(=O)N(CC)C(=O)[C@@H]3[C@]3(C(=O)OC)CCCCN23)cc1 | 15.3 | 6.51 µM [rising, partial curve, poor fit] | 
